Source: US20110129457A1
Results are given in words; binding and its absence hold for the method and conditions named. A result given as binding can be weak or reduced; the word gives no strength. For some of these results: Sequences can lack the tags named with a protein.

Sequences of proteins named here, by UniProt entry; tags and fusion partners are left off. A change or cut given only in a name is not applied to a line headed by its entry.
UniProt Q15465: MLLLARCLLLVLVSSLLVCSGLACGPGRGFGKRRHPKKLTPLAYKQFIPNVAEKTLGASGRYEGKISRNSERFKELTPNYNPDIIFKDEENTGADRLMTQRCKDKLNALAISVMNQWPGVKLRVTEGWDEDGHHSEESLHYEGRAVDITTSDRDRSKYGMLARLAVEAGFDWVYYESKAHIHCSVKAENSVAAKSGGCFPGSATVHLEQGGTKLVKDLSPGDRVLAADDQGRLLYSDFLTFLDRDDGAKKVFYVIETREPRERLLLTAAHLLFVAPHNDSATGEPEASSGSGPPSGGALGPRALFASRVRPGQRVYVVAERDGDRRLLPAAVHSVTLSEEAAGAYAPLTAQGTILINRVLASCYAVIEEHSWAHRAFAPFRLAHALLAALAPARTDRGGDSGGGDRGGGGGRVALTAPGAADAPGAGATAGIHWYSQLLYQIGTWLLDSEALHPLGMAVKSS

Columns and labels:
[1] = target: Shh (residues 29-197) lacking the His6-Tag, after thrombin treatment (human) (UniProt Q15465); assay: NMR, 15N,1H-HSQC of 90 µM 15N-Shh alone and with 2 mM unlabeled cyclic Hhip L2 peptide
[2] = target: Shh (residues 29-197) lacking the His6-Tag, after thrombin treatment (human) (UniProt Q15465); assay: NMR, 13C,1H-HSQC of the histidine side chains of Shh alone and with 2 mM Hhip L2 peptide
[3] = target: Shh (residues 29-197) lacking the His6-Tag, after thrombin treatment (human) (UniProt Q15465); assay: NMR 13C,1H-HSQC of Shh histidine side chains, 2 mM peptide
[4] = target: Shh (residues 29-197) lacking the His6-Tag, after thrombin treatment (human) (UniProt Q15465); assay: NMR 15N,1H-HSQC, 90 µM 15N-Shh with 2 mM peptide
[5] = target: Shh (residues 29-197) lacking the His6-Tag, after thrombin treatment (human) (UniProt Q15465); assay: NMR, 13C,1H-HSQC of the histidine side chains of Shh; 2 mM Hhip L2 peptide added to Shh with 2 mM Ptch1 L2-like peptide (the competitor)
[6] = target: Shh (residues 29-197) lacking the His6-Tag, after thrombin treatment (human) (UniProt Q15465); assay: NMR, 15N,1H-HSQC of 90 µM 15N-Shh alone and with 2 mM unlabeled cyclic Ptch L2 peptide
[7] = target: Shh (residues 29-197) lacking the His6-Tag, after thrombin treatment (human) (UniProt Q15465); assay: NMR, 13C,1H-HSQC of the histidine side chains of Shh alone and with 2 mM Ptch1 L2-like peptide
[8] = target: Shh (residues 29-197) lacking the His6-Tag, after thrombin treatment (human) (UniProt Q15465); assay: size exclusion chromatography of the complex

Measured: binding

B1: Hhip1β12 L2 peptide, disulfide-containing cyclic (…) (peptide)
peptide: GCGMITLDDMEEMDGLSDFCG
modifications: disulfide-containing cyclic peptide
binds: [1] | [2] | [3] | [4] | [5]

B2: Ptch L2 peptide, disulfide-containing cyclic (…) (peptide)
peptide: GCQLTKQRLVDADGIINPCG
modifications: disulfide-containing cyclic peptide
binds: [3] | [6] | [4] | [7]

B3: Hhip1β12 (β-propeller-EGF1-EGF2, residues 193-667), C-terminal His6-tag (receptor)
chain: SNYLDQMEEYDKVEEISRKHKHNCFCIQEVVSGLRQPVGALHSGDGSQRLFILEKEGYVKILTPEGEIFKEPYLDIHKLVQSGIKGGDERGLLSLAFHPNYKKNGKLYVSYTTNQERWAIGPHDHILRVVEYTVSRKNPHQVDLRTARVFLEVAELHRKHLGGQLLFGPDGFLYIILGDGMITLDDMEEMDGLSDFTGSVLRLDVDTDMCNVPYSIPRSNPHFNSTNQPPEVFAHGLHDPGRCAVDRHPTDININLTILCSDSNGKNRSSARILQIIKGKDYESEPSLLEFKPFSNGPLVGGFVYRGCQSERLYGSYVFGDRNGNFLTLQQSPVTKQWQEKPLCLGTSGSCRGYFSGHILGFGEDELGEVYILSSSKSMTQTHNGKLYKIVDPKRPLMPEECRATVQPAQTLTSECSRLCRNGYCTPTGKCCCSPGWEGDFCRTAKCEPACRHGGVCVRPNKCLCKKGYLGPQCEHHHHHH
binds: [8]
